In US7781485B2, “Hsp90 family protein inhibitors” (Kyowa Hakko Kirin Co., Ltd., priority 2004, dated 2010):
Some results were stated once for a whole list of compounds, not compound by compound.

Molecular target: T1, Human N-terminal recombinant Hsp90 protein (region of amino acids 9 to 236) (Homo sapiens, UniProt P07900)
T1 construct: region of amino acids 9 to 236; made in house
Experiment: Hsp90 protein binding assay (competition with biotinylated Radicicol, time-resolved fluorescence)
Settings: at concentrations below 10 μmol/L; biotinylated Radicicol 0.1 μmol/L

Row | Compound | inhibition of the binding of biotinylated Radicicol to the Hsp90 protein
1 | O=C(NCCc1ccccc1)c1c(O)cc(O)cc1COCc1ccccc1 [Compound 3, 2-(Benzyloxymethyl)-4,6-dihydroxy-N-phenethylbenzamide] | more than 30%
2 | COC(=O)c1c(O)cc(O)c(Cl)c1COCc1ccccc1 [Compound 4, 2-(Benzyloxymethyl)-3-chloro-4,6-dihydroxybenzoic acid methyl ester] | more than 30%
3 | CCc1c(O)cc(O)c(C(=O)N(C)C)c1CC(=O)OC [Compound 11, [2-(N,N-dimethylcarbamoyl)-6-ethyl-3,5-dihydroxyphenyl]acetic acid methyl ester] | more than 30%
4 | CCc1c(O)cc(O)c(C(=O)N2CCCC2)c1CC(=O)OC [Compound 12, [2-Ethyl-3,5-dihydroxy-6-(pyrrolidin-1-ylcarbonyl)phenyl]acetic acid methyl ester] | more than 30%
5 | CCc1c(O)cc(O)c(C(=O)N(C)Cc2ccccc2)c1CC(=O)OC [Compound 13, [2-(N-benzyl-N-methylcarbamoyl)-6-ethyl-3,5-dihydroxyphenyl]acetic acid methyl ester] | more than 30%
6 | CCc1c(O)cc(O)c(C(=O)OC)c1CC(=O)OC [Compound 23, 3-Ethyl-4,6-dihydroxy-2-(methoxycarbonylmethyl)benzoic acid methyl ester] | more than 30%
